Among the data in article PMC10372072 are binding values, retold here.

Protein sequences, listed by entry. Tags and fused reporters are not part of them.
UniProt P50750: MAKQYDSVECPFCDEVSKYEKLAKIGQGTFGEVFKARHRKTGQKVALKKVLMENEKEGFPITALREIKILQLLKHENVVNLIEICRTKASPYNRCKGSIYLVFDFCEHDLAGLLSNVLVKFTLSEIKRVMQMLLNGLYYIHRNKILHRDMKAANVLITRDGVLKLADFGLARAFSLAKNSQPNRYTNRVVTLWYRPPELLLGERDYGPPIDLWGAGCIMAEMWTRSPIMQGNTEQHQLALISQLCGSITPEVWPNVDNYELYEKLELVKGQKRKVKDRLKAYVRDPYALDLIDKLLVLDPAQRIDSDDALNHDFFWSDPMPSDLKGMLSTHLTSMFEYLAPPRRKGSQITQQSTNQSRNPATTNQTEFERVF
UniProt Q96SW2: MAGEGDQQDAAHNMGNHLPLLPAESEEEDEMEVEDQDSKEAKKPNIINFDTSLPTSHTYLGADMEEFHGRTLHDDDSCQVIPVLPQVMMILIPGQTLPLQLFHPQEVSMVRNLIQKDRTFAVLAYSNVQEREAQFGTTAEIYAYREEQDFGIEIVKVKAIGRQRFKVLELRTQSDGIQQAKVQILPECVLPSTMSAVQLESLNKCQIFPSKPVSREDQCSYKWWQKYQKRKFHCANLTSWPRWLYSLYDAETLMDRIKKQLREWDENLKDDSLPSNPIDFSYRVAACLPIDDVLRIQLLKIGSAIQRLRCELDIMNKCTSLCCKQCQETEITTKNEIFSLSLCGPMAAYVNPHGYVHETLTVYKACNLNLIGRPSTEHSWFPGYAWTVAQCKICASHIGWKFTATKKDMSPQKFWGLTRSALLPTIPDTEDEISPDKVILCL

The target of this assay is human recombinant CDK9 protein (cyclin-dependent kinase 9) (human) (UniProt P50750). Description: SPR; CDK9 immobilised on a CM5 chip; free CRBN protein without DbTACs, twofold serial dilution in PBS-P running buffer; multicycle kinetics, 298.15 K; both purified. A general note: In SPR one partner is held on a chip, and binding of the other changes the refractive index at the surface.

No constants are given. Whether binding was seen depends on the method and setting. Some results given as binding are weak or reduced against the parent protein; the word gives no strength.

Regarding “human recombinant CRBN protein (cereblon) (from UniProt Q96SW2 1-442)”, the binding entry is recorded as “binds weakly”.
